# According to PubChem BioAssay AID330 (DTP/NCI, 2004):
# The list is a part of this screen's results and no random one: it gathers tests that were run many times, whatever their T/C, doses with no T/C, and many T/C values between a quarter and a half above the control. Other doses and runs of a compound stand elsewhere. T/C gives the treated animals as a percentage of the vehicle group. Some entries give survivors of the animals treated and no T/C: the source files T/C as zero there, which appears to mark a toxic dose or a test without result, not a measured value. Some doses without a T/C left all or most animals alive at the check, yet need not have been tolerated: the source hardly ever lists a survival T/C far under the control, and the zero likely stands for such cases as well. Counts of survivors are from the toxicity check (mostly the fifth day) where no day follows; animals may have died later. Schedule codes are those of the source, read here as Q, the interval in days (D) or hours (H), X, the number of doses. Some entries were tested several times; the values are given in rising order. For survival time, the PubChem record calls one and a half times the control and up active, and a quarter to a half above the control has no call in these data; cut-offs in other NCI protocols can differ. Some T/C values carry the count of animals alive at the toxicity check (mostly the fifth day); without a count, all were alive then.
# Tested on: P388 leukemia ip, CD2F1 mice, survival T/C
# Experiment: NCI In Vivo Anticancer Drug Screen. Data for tumor model P388 Leukemia (intraperitoneal) in CD2F1 (CDF1) mice
# Settings: T/C endpoint: median survival time, higher T/C = longer survival
# [1] = dose: 12.5 mg/kg/injection, schedule: Q01DX009 (ip), vehicle: saline
# [2] = dose: 25.0 mg/kg/injection, schedule: Q01DX009 (ip), vehicle: saline
# [3] = dose: 50.0 mg/kg/injection, schedule: Q01DX009 (ip), vehicle: saline
# [4] = dose: 100.0 mg/kg/injection, schedule: Q01DX009 (ip), vehicle: saline
# [5] = dose: 240.0 mg/kg/injection, schedule: Q01DX005 (ip), vehicle: saline with Tween-80
# [6] = dose: 200.0 mg/kg/injection, schedule: Q01DX005 (ip), vehicle: water
# [7] = dose: 100.0 mg/kg/injection, schedule: Q01DX009 (ip), vehicle: saline with Tween-80
# [8] = dose: 200.0 mg/kg/injection, schedule: Q01DX009 (ip), vehicle: saline with Tween-80
# [9] = dose: 400.0 mg/kg/injection, schedule: Q01DX009 (ip), vehicle: saline with Tween-80
# [10] = dose: 25.0 mg/kg/injection, schedule: Q01DX009 (ip), vehicle: suspension in saline
# [11] = dose: 400.0 mg/kg/injection, schedule: Q04DX003 (ip), vehicle: saline with Tween-80
compound,measurement,setting,value
Cc1c(N)nc(C(CC(N)=O)NCC(N)C(N)=O)nc1C(=O)NC(C(=O)NC(C)C(O)C(C)C(=O)NC(C(=O)NCCc1nc(-c2nc(C(=O)NCCCNC(C)c3ccccc3)cs2)cs1)C(C)O)C(OC1OC(CO)C(O)C(O)C1OC1OC(CO)C(O)C(OC(N)=O)C1O)c1cnc[nH]1 (centres undefined),T/C,"dose: 2.0 mg/kg/injection, schedule: Q01DX009 (ip), vehicle: water",127 % of control
CC1CC2OC(=O)C(CN3CC3)C2CC2(C)C(O)CC(O)C12 (centres undefined),T/C,"dose: 100.0 mg/kg/injection, schedule: Q04DX002 (ip), vehicle: saline",128 % of control
same,survivor count,"dose: 200.0 mg/kg/injection, schedule: Q04DX002 (ip), vehicle: saline with Tween-80",0 of 6
same,survivor count,"dose: 200.0 mg/kg/injection, schedule: Q04DX002 (ip), vehicle: saline",0 of 6
same,survivor count,"dose: 400.0 mg/kg/injection, schedule: Q04DX002 (ip), vehicle: saline",0 of 6
Nc1ccn([C@@H](C=O)O[C@@H](C=O)CO)c(=O)n1,T/C,"dose: 100.0 mg/kg/injection, schedule: Q04DX003 (ip), vehicle: saline",125 % of control
same,T/C,"dose: 150.0 mg/kg/injection, schedule: Q04DX003 (ip), vehicle: saline",129 % of control
same,survivor count,"dose: 400.0 mg/kg/injection, schedule: Q01DX009 (ip), vehicle: saline",3 of 6
C[n+]1ccn2cc(S(=O)(=O)[O-])ccc21,survivor count,[1],0 of 6
same,survivor count,[2],0 of 6
same,survivor count,[3],0 of 6
same,survivor count,[4],0 of 6
Cc1cc(=O)c2c(ccc3c(=O)cc(C)[nH]c32)[nH]1,survivor count,"dose: 60.0 mg/kg/injection, schedule: Q01DX005 (ip), vehicle: saline with Tween-80",3 of 6
same,survivor count,[5],3 of 6
Nc1nc(N)c2nnn(C3OC(CO)C(O)C3O)c2n1 (centres undefined),T/C,"dose: 6.0 mg/kg/injection, schedule: Q01DX009 (ip), vehicle: saline",125 % of control
same,T/C,[4],132 % of control
same,survivor count,"dose: 200.0 mg/kg/injection, schedule: Q01DX009 (ip), vehicle: saline",2 of 6
CCN(CC)CCSc1cc(C)c2ccc(N)nc2n1,survivor count,"dose: 240.0 mg/kg/injection, schedule: Q01DX005 (ip), vehicle: Klucel (hydroxypropylcellulose) (HPC)",0 of 6
O=C1CN(CCN2CC(=O)N(CN3CCOCC3)C(=O)C2)CC(=O)N1CN1CCOCC1,T/C,"dose: 25.0 mg/kg/injection, schedule: Q01DX005 (ip), vehicle: water",134 % of control
same,T/C,"dose: 50.0 mg/kg/injection, schedule: Q01DX005 (ip), vehicle: water, evaluated on day 30","162, 163, 203 % of control"
same,T/C,"dose: 50.0 mg/kg/injection, schedule: Q01DX005 (ip), vehicle: water, evaluated on day 60",123 % of control
same,T/C,"dose: 100.0 mg/kg/injection, schedule: Q01DX005 (ip), vehicle: water, evaluated on day 30","163, 180 [5 of 6 alive], 242 % of control"
same,T/C,"dose: 100.0 mg/kg/injection, schedule: Q01DX005 (ip), vehicle: water, evaluated on day 60",186 % of control
same,T/C,[6],86 [5 of 6 alive] and 198 % of control
same,survivor count,[6],1 of 6 and 9 of 10
O=C1CCS(=O)(=O)c2ccccc21,survivor count,[7],6 of 6
same,survivor count,[8],0 of 6
same,survivor count,[9],0 of 6
O=C(Nc1ncc([N+](=O)[O-])s1)c1cccnc1,survivor count,[2],5 of 6
same,survivor count,[3],4 of 6
same,survivor count,[4],5 of 6
COc1cc2c(c(OC)c1OC)-c1ccc(OC)c(=O)cc1[C@@H](NC=O)CC2,T/C,"dose: 0.5 mg/kg/injection, schedule: Q01DX009 (ip), vehicle: saline",147 % of control
same,T/C,"dose: 1.0 mg/kg/injection, schedule: Q01DX009 (ip), vehicle: saline",147 % of control
same,survivor count,"dose: 2.0 mg/kg/injection, schedule: Q01DX009 (ip), vehicle: saline",6 of 6
CCCCNC(=O)OCc1c(COC(=O)NCCCC)c(-c2ccc(Cl)c(Cl)c2)n2c1CCC2,T/C,"dose: 25.0 mg/kg/injection, schedule: Q01DX009 (ip), vehicle: saline with Tween-80",138 % of control
same,T/C,"dose: 50.0 mg/kg/injection, schedule: Q01DX009 (ip), vehicle: saline with Tween-80",137 % of control
same,T/C,[7],"152, 160, 170, 181 % of control"
same,survivor count,[9],5 of 6
Cc1ccc(C[N+](C)(C)C)cc1,survivor count,[7],1 of 6
same,survivor count,[8],0 of 6
Cc1c[n+]2ccccc2n1C,survivor count,[1],6 of 6
O=C(C=C(C(F)(F)F)C(F)(F)F)c1c2ccccc2cc2ccccc12,survivor count,"dose: 6.25 mg/kg/injection, schedule: Q01DX009 (ip), vehicle: DMSO",4 of 5
same,survivor count,"dose: 12.5 mg/kg/injection, schedule: Q01DX009 (ip), vehicle: DMSO",1 of 6
same,survivor count,"dose: 25.0 mg/kg/injection, schedule: Q01DX009 (ip), vehicle: DMSO",0 of 6
Oc1ccc(/C=N/Nc2nnc(N/N=C/c3ccc(O)cc3O)c3ccccc23)c(O)c1,T/C,"dose: 6.25 mg/kg/injection, schedule: Q01DX009 (ip), vehicle: suspension in saline",130 % of control [5 of 6 alive]
same,T/C,"dose: 12.5 mg/kg/injection, schedule: Q01DX009 (ip), vehicle: suspension in saline",129 [4 of 6 alive] and 130 % of control
same,survivor count,[2],5 of 6
same,T/C,[10],134 % of control [5 of 6 alive]
same,survivor count,[10],5 of 6
same,survivor count,"dose: 50.0 mg/kg/injection, schedule: Q01DX009 (ip), vehicle: suspension in saline",4 of 6
same,survivor count,"dose: 100.0 mg/kg/injection, schedule: Q01DX009 (ip), vehicle: suspension in saline",5 of 6
CC(=O)C[C@H](c1ccccc1)c1ccccc1[C@H](C)N(C)C,survivor count,[5],0 of 6
CC(C)SC(=O)C[Si](C)(C)C,survivor count,[11],3 of 6
O=[N+]([O-])c1ccc(-[n+]2ccc3ccccc3c2)c([N+](=O)[O-])c1,survivor count,"dose: 100.0 mg/kg/injection, schedule: Q01DX005 (ip), vehicle: saline",0 of 5
same,survivor count,"dose: 200.0 mg/kg/injection, schedule: Q01DX005 (ip), vehicle: saline",0 of 5
CC(C)COP(=O)(OCC(C)C)OCC(C)C,survivor count,[7],3 of 6
CCN(CC)CCNC(=O)c1nn(-c2ccc(Cl)cc2)c2c1CCc1cc(OC)ccc1-2,survivor count,"dose: 100.0 mg/kg/injection, schedule: Q04DX003 (ip), vehicle: saline with Tween-80",6 of 6
same,survivor count,"dose: 200.0 mg/kg/injection, schedule: Q04DX003 (ip), vehicle: saline with Tween-80",0 of 6
same,survivor count,[11],0 of 6
